# Laboratory results as given in patent US20210163945, “APTAMERS FOR TARGETING COAGULATION FACTOR XIII AND USES THEREOF” (Chang Gung University, published 2021).
# Molecular target: T1, Coagulation factor XIII on activated platelets (Homo sapiens) (UniProt P00488)
# T1 sequence (looked up, limits assumed): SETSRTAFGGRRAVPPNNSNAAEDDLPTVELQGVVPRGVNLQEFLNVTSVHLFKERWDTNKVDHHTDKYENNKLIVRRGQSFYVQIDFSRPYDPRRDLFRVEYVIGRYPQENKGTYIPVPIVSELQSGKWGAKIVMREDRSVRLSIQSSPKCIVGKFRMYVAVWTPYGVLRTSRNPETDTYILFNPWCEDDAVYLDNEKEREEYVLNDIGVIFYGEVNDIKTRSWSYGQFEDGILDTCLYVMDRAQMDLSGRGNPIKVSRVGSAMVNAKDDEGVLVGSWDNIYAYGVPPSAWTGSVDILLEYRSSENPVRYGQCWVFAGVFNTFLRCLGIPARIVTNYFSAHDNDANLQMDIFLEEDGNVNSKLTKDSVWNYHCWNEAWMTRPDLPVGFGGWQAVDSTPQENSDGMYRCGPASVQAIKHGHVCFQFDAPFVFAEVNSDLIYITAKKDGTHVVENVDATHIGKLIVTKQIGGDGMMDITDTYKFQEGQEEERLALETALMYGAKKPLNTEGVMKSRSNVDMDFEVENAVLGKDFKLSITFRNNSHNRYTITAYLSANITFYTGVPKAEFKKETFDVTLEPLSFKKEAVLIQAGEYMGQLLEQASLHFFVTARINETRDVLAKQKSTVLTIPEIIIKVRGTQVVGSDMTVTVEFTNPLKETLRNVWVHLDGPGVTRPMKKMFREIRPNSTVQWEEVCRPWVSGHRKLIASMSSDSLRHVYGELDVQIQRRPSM
# Assay: flow cytometry
# Conditions: also fibrin/activated platelets by confocal microscopy, no significant binding to un-activated platelets, protein on the cell surface, protein details: TRAP-activated human platelets, label: FAM or biotin, single-stranded DNA
sequence,measurement,value
CGCAGCATCATTCGGGTCGGGAAGGGGTGTACGGGGCTGCG [FAT2],binding result,binds

# At least one result comes from cells or an extract, where the contact may be indirect. Tags and fusion partners may be left off the protein sequences shown.
